Results on 11 molecules are retold here after patent US12552694B2, “Use of trivalent metals to enhance aquatic pesticide efficacy, surface water, and sediment quality while minimizing risk to aquatic biota” (SePRO Corporation, priority 2022, dated 2026).

Read-outs that look alike come from different tables or passages of the source. Some entries repeat one wording, which the source may state once for all of them.

The nature of series [1]: Example 1: capacity of additives to bind dissolved La and Ce (ICP-OES). Format: physicochemical.
Series [2] is described as follows: Example 1: preservation of P binding after additive (dissolved P colour reagent). Format: physicochemical.
For series [3] the following is noted: 2 hours after La/Ce addition.
Setting [4] is: dissolved Ce after additive, 0.22 μm filtered, control 10.833 mg/L.
The mark [5] stands for this setting: reduction in dissolved Ce vs control.
The mark [6] stands for this setting: reduction in dissolved La vs control.
The mark [7] stands for this setting: approximately 1 ppm P added to remaining sample, blue = dissolved P remains.

`NC(=O)CC[C@H](N)C(=O)O` [Glutamine, glutamine]: the Ce in series [1] (setting [4]) is listed as 9.67 mg/L. In addition, in series [1] (per g additive), the Ce bound stood at 0.59 mg/g, the La bound is given as 0.61 mg/g and the “Total La/Ce bound” value was found to be 1.20 mg/g. Also, in series [1] (setting [5]), the “% Ce reduction” value was 11%. In addition, in series [1] (setting [6]), the “% La reduction” value worked out at 11%. Moreover, the “Also binds P” value in series [2] (setting [7]) is recorded as “YES”. The “Also binds P” value in series [2] (approximately 1 ppm P added to remaining sample, blue = dissolved P remains, listed as glutamine) is recorded as “did display a preservation of P-binding capability”.
In the case of `O=C([O-])CC(O)(CC(=O)[O-])C(=O)[O-].[Na+].[Na+].[Na+]` [Sodium citrate, sodium citrate], in series [1], the “% Ce reduction” value is 20%, the “% La reduction” value is reported as 20%, the Ce is listed as 8.67 mg/L and the Ce bound turned out to be 1.10 mg/g. In series [1], the La bound amounted to 1.12 mg/g and the “Total La/Ce bound” value is reported as 2.21 mg/g. Besides, the “Also binds P” value in series [2] is “did display a preservation of P-binding capability and YES”.
In the case of `O.O=C([O-])C(=O)[O-].[K+].[K+]` [Potassium oxalate (monohydrate), potassium oxalate (monohydrate)], in series [1], the Ce is given as 1.99 mg/L, the Ce bound turned out to be 4.45 mg/g, the La bound turned out to be 4.55 mg/g and the “Total La/Ce bound” value worked out at 9.00 mg/g.
The matching figures for `[Ca+2].[OH-].[OH-]` [Calcium hydroxide, calcium hydroxide]: 0.173 mg/L, 5.31 mg/g, 5.15 mg/g and 10.46 mg/g.
`O=C([O-])C(O)C(O)C(=O)[O-].[Na+].[Na+]` (centres unmarked) [Sodium tartrate, sodium tartrate]: in series [1], the “% Ce reduction” value is on record as 18%, the “% La reduction” value amounted to 18%, the Ce was found to be 8.89 mg/L and the Ce bound is listed as 0.98 mg/g. In series [1], the La bound worked out at 1.01 mg/g and the “Total La/Ce bound” value is listed as 2.00 mg/g. In addition, the “Also binds P” value in series [2] was “did display a preservation of P-binding capability and YES”.
Consider `O=C([O-])[O-].[Ca+2]` [Calcium carbonate, calcium carbonate], for which, in series [1], the “% Ce reduction” value is reported as 34%, the “% La reduction” value amounted to 40%, the Ce is 7.11 mg/L and the Ce bound is recorded as 1.76 mg/g. Besides, in series [1], the La bound came out at 2.07 mg/g and the “Total La/Ce bound” value came out at 3.83 mg/g. The “Also binds P” value in series [2] is “did display a preservation of P-binding capability and YES”.
Take `C=CC(=O)[O-].[Na+]` [Sodium acrylate, sodium acrylate]: in series [1], the “% Ce reduction” value is given as −28%, the “% La reduction” value is listed as −14%, the Ce is given as 13.9 mg/L and the Ce bound was -1.42 mg/g. In series [1], the La bound was -0.68 mg/g and the “Total La/Ce bound” value was -2.10 mg/g. Further, in series [2], the “Also binds P” value was “did display a preservation of P-binding capability and YES”.
As for `[O]=[Mg]` [Magnesium oxide, magnesium oxide], in series [1], the Ce is given as 0.0662 mg/L, the Ce bound stood at 5.36 mg/g, the La bound came out at 5.34 mg/g and the “Total La/Ce bound” value is listed as 10.71 mg/g. Besides, in series [2], the “Also binds P” value is “still binding P and YES”.
Take `O=[Si]([O-])[O-].[Na+].[Na+]` [Sodium metasilicate (anhydrous), sodium metasilicate (anhydrous)]: the Ce in series [1] (setting [4]) was 3.39 mg/L. This molecule yielded a Ce bound in series [1] (per g additive) of 3.62 mg/g. For the same molecule, the La bound in series [1] (per g additive) was 3.86 mg/g. The “Total La/Ce bound” value in series [1] (per g additive) was 7.48 mg/g. In addition, the “% Ce reduction” value was 69% in series [1] (setting [5]) and “approximately 69%” in series [1] (reduction in dissolved Ce vs control, listed as sodium metasilicate (anhydrous)). Further, the “% La reduction” value is reported as 73% in series [1] (setting [6]) and “approximately 73%” in series [1] (reduction in dissolved La vs control, listed as sodium metasilicate (anhydrous)). Moreover, the “Also binds P” value in series [2] (setting [7]) is recorded as “did not display a preservation of P binding capability”.
Take `c1cc[n+]2c(c1)-c1cccc[n+]1CC2` [Diquat only, diquat]: the “Dissolved Ce” value in series [3] (50 μg/L diquat) was 271 µg/L; in series [3] (100 μg/L diquat), 305 µg/L; in series [3] (200 μg/L diquat), 248 µg/L; in series [3] (300 μg/L diquat) it was 385 µg/L. The “Dissolved La” value in series [3] (50 μg/L diquat) is 175 µg/L; in series [3] (100 μg/L diquat) it was 191 µg/L; in series [3] (200 μg/L diquat), 166 µg/L; in series [3] (300 μg/L diquat), 222 µg/L. For the same molecule, the “Total Dissolved Ce & La” value in series [3] (50 μg/L diquat) is 446 µg/L; in series [3] (100 μg/L diquat), 496 µg/L; in series [3] (200 μg/L diquat), 414 µg/L; in series [3] (300 μg/L diquat), 607 µg/L.
As to `[Na+].[OH-]` [Sodium hydroxide, sodium hydroxide], in series [1], the Ce amounted to 0.106 mg/L, the Ce bound is given as 4.98 mg/g, the La bound is 4.94 mg/g and the “Total La/Ce bound” value came out at 9.91 mg/g.
